{"sequences": {"note": "By UniProt entry, the sequences of proteins in these tests, tags left out.", "UniProt Q0JBA9, entry or part of it": "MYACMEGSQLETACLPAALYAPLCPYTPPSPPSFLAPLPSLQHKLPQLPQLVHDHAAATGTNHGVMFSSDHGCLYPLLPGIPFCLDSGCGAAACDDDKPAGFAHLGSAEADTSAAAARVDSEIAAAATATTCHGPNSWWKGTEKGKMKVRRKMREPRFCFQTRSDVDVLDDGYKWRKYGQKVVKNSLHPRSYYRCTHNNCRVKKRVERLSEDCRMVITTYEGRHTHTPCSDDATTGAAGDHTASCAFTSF"}, "source": "paper PMC7819943", "about": "“Rice protein-binding microarrays: a tool to detect cis-acting elements near promoter regions in rice”", "note": "The list shows a part of the results."}
{"molecular_target": "OsWRKY34 (Oryza sativa, UniProt Q0JBA9 1-250)", "experiment": "protein-binding microarray (RPBM); PBS, 2% BSA, 51.3 ng/ul salmon testes DNA, 50 uM zinc acetate, 200 nM TF, 25 C, 1 h; high values mean tight binding", "conditions": "protein: recombinant; tags: N-terminal polyhistidine and DsRed monomer fusion (pET32a); label: CyDye5-dUTP incorporated in the synthesized complementary strand; 3' TTTTT single-stranded linker to array surface; dsDNA, one strand shown", "in_short": "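Using Ni–NTA, transcription factors fused N-terminally to polyhistidine and DsRed were purified after expression in E. coli BL21-CodonPlus. These were incubated at 200 nM with a blocked, double-stranded custom Agilent array for 1 h at 25 °C in a buffer containing 50 µM zinc acetate, and the array was washed. The binding signal is per-feature fluorescence intensity (arbitrary units) on an Axon 4000B scanner.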"}
{"sequence": "GCCAATTGTAACAGCATTTCATTACTTACCCCGTTCTATACGGAGTCACCTAGTGCAG", "binding signal": "9620 fluorescence intensity (a.u.)"}
{"sequence": "CCAACCCAAACCCCGTCGTCTCCTCTCCCGCTCGCTGTCCCGGAGTCACCTAGTGCAG", "binding signal": "9000 fluorescence intensity (a.u.)"}
{"sequence": "TTATCTCCTAGCTCCTCATCTAGCTTTCGTTGAGTTGACTCGGAGTCACCTAGTGCAG", "binding signal": "8020 fluorescence intensity (a.u.)"}
{"sequence": "GTTGCTTGTGCTTTGGTGTGTTTTGTTGTTGGTAGCCATGCGGAGTCACCTAGTGCAG", "binding signal": "11000 fluorescence intensity (a.u.)"}
{"sequence": "TATGACAGTCGTCTTCCCCACACCCGGTGGACCGATGAGCCGGAGTCACCTAGTGCAG", "binding signal": "8030 fluorescence intensity (a.u.)"}
{"sequence": "GGGAGCTTGAATACTGTGTAGGTTTTATTTTCTTTATATGCGGAGTCACCTAGTGCAG", "binding signal": "8450 fluorescence intensity (a.u.)"}
{"sequence": "TCTACCTCCGCCGCACGTGCCGCATCTTCCGCCGCCTCTGCGGAGTCACCTAGTGCAG", "binding signal": "8220 fluorescence intensity (a.u.)"}
{"sequence": "ATATAGTTTATCAGTGGCTGCGTTTGGCTACACTAGTTACCGGAGTCACCTAGTGCAG", "binding signal": "8110 fluorescence intensity (a.u.)"}
{"sequence": "AACCGTCCAAGCACACACTACCGACCACCGCTGCTGTTTTCGGAGTCACCTAGTGCAG", "binding signal": "9970 fluorescence intensity (a.u.)"}
{"sequence": "TTAGTACTGTGATACGATGTCTTTCAGTTGTATCGAGTCTCGGAGTCACCTAGTGCAG", "binding signal": "9420 fluorescence intensity (a.u.)"}
{"sequence": "TTTGTGTGTGTGGTTATGGTTCTTCGCCTATTCATCAACCCGGAGTCACCTAGTGCAG", "binding signal": "9530 fluorescence intensity (a.u.)"}
{"sequence": "CTCACATTCACCACGAGGTTTCTGCTGCTGGTTTGTCTGACGGAGTCACCTAGTGCAG", "binding signal": "9300 fluorescence intensity (a.u.)"}
{"sequence": "GCCACACCTCCCATTCCTTAGCCAAACACTCGCACTACTCCGGAGTCACCTAGTGCAG", "binding signal": "8690 fluorescence intensity (a.u.)"}
{"sequence": "GCTGGGACTTGGGAGTTGGGATGGATTAGGTTTCGATGTTCGGAGTCACCTAGTGCAG", "binding signal": "8420 fluorescence intensity (a.u.)"}
{"sequence": "AGGTAATTTTTTCTGGGCCTGTATTCTTTTTCTAGGTTCACGGAGTCACCTAGTGCAG", "binding signal": "11200 fluorescence intensity (a.u.)"}
{"sequence": "TGCTCACGTCCGCGCTTGCCTTGCTGTTAGCACTTGCCTCCGGAGTCACCTAGTGCAG", "binding signal": "8730 fluorescence intensity (a.u.)"}
{"sequence": "GTTCCAGCTTCATGCATGCACACACACAGTAGCTCGTGCTCGGAGTCACCTAGTGCAG", "binding signal": "29300 fluorescence intensity (a.u.)"}
{"sequence": "GTTCCTCCACGATTTCTTTTATCCATCTTCTTCTTCTTTCCGGAGTCACCTAGTGCAG", "binding signal": "9150 fluorescence intensity (a.u.)"}
{"sequence": "ACATCAAACTTTCCTACACACATAAACTTTCAACTTTTCCCGGAGTCACCTAGTGCAG", "binding signal": "8910 fluorescence intensity (a.u.)"}
{"sequence": "TAAAATTCCTTGCAGTCATGGTCATCCTCTCCTACACCAGCGGAGTCACCTAGTGCAG", "binding signal": "8770 fluorescence intensity (a.u.)"}
{"sequence": "ATGGATTTCGATGGTGTTTCACACTTTTTGTCTTTGATGCCGGAGTCACCTAGTGCAG", "binding signal": "9000 fluorescence intensity (a.u.)"}
{"sequence": "CGATCCACCGCCTCCATCGTCCCTTGCATCCACGCCGTCGCGGAGTCACCTAGTGCAG", "binding signal": "11600 fluorescence intensity (a.u.)"}
{"sequence": "CAGCTTCATACTCCGGGTAACATTCCTTATCTAGCCAAAGCGGAGTCACCTAGTGCAG", "binding signal": "8480 fluorescence intensity (a.u.)"}
{"sequence": "ACCTACTCACAATCACAGAATCACATCATAACATTATTGTCGGAGTCACCTAGTGCAG", "binding signal": "9160 fluorescence intensity (a.u.)"}
{"sequence": "GAGTCAACTCTCTCTGTCGTCATCTTCTTCGTGTGTGCAGCGGAGTCACCTAGTGCAG", "binding signal": "8320 fluorescence intensity (a.u.)"}
{"sequence": "GCACTATCCTACTCGGCTAGTATTCTCCTTTCCGTCTCCCCGGAGTCACCTAGTGCAG", "binding signal": "10300 fluorescence intensity (a.u.)"}
{"sequence": "CTGGTCACTAAGACTGTGTTCTCTCTCCGGCACACAAAACCGGAGTCACCTAGTGCAG", "binding signal": "8750 fluorescence intensity (a.u.)"}
{"sequence": "AGGTATATGATAAAATTGAATGGTGGAGGGTTGTGATTGGCGGAGTCACCTAGTGCAG", "binding signal": "8320 fluorescence intensity (a.u.)"}
{"sequence": "GTGGGTTGGGCCAAAGAAAGGTAGGCTGAGTGGAGGGATGCGGAGTCACCTAGTGCAG", "binding signal": "10400 fluorescence intensity (a.u.)"}
{"sequence": "CCCGTCCAGCATTTTGTGTCTTGTCATCCTCGCCACCTCACGGAGTCACCTAGTGCAG", "binding signal": "9270 fluorescence intensity (a.u.)"}
{"sequence": "GGATTCTCTCTTCGGTTTGCACGTGGTTCTCTGCTGATAACGGAGTCACCTAGTGCAG", "binding signal": "9300 fluorescence intensity (a.u.)"}
{"sequence": "TCTCACATGTAATGGTATTTCTAACCGGTGCATCTTTATACGGAGTCACCTAGTGCAG", "binding signal": "8160 fluorescence intensity (a.u.)"}
{"sequence": "AAGAAGGTGAGCTATTGGTTATGTTGATGTATTCATTATACGGAGTCACCTAGTGCAG", "binding signal": "9760 fluorescence intensity (a.u.)"}
{"sequence": "TTTGCCATTTGAGCATTTTTCTTCCTTTATTTTGTTAATACGGAGTCACCTAGTGCAG", "binding signal": "8790 fluorescence intensity (a.u.)"}
{"sequence": "CAGGGCCATGTTCGCTGATACATTGTGTTGGATTGCACTGCGGAGTCACCTAGTGCAG", "binding signal": "8030 fluorescence intensity (a.u.)"}
{"sequence": "AGTCCGTGCACATCTACCTCCGCCGCGACGACGCCGCCGTCGGAGTCACCTAGTGCAG", "binding signal": "8150 fluorescence intensity (a.u.)"}
{"sequence": "GGGCACTGGTGTGTGTGTATATTTCTTTTTTCTGAAGACTCGGAGTCACCTAGTGCAG", "binding signal": "13800 fluorescence intensity (a.u.)"}
{"sequence": "CTTTTTTTACGGTAGACGGAAACCCTTTTATAGCACTTTTCGGAGTCACCTAGTGCAG", "binding signal": "8410 fluorescence intensity (a.u.)"}
{"sequence": "ATATGGACCTATACTCTATTTCTAATATTCCTTATTTTTACGGAGTCACCTAGTGCAG", "binding signal": "10200 fluorescence intensity (a.u.)"}
{"sequence": "GCCACACCCACACTGACACACATATACAAGCCAGAGAGATCGGAGTCACCTAGTGCAG", "binding signal": "8850 fluorescence intensity (a.u.)"}
{"sequence": "CAACTGCATAGGATCCTGATCCCTGCCTTTGCATTGTCTTCGGAGTCACCTAGTGCAG", "binding signal": "8190 fluorescence intensity (a.u.)"}
{"sequence": "TAAACTACCTACTACTTGACCACCTCTCCGTCTCTCTTCCCGGAGTCACCTAGTGCAG", "binding signal": "9150 fluorescence intensity (a.u.)"}
{"sequence": "CCGAGTTTAGTTTCCTACTTTGATGGCTAGCTAAAAATTTCGGAGTCACCTAGTGCAG", "binding signal": "8970 fluorescence intensity (a.u.)"}
{"sequence": "CAGTAGGCAAGTTCAGCACACGTTCCGGTTCTATTCCCAGCGGAGTCACCTAGTGCAG", "binding signal": "8680 fluorescence intensity (a.u.)"}
{"sequence": "TCAAAATCGTTTTTCCTTTTTCATTGCCATCACATTGTAGCGGAGTCACCTAGTGCAG", "binding signal": "8550 fluorescence intensity (a.u.)"}
{"sequence": "CTCTCGTCCGCTCCCCGCCGCCGCCGCTGCAGCTGCCTCTCGGAGTCACCTAGTGCAG", "binding signal": "8390 fluorescence intensity (a.u.)"}
{"sequence": "GAACCCGTGCCGCTGCGCCCCAAACCCCACTACCATAAAACGGAGTCACCTAGTGCAG", "binding signal": "10100 fluorescence intensity (a.u.)"}
{"sequence": "GTGGAGTTGCTTTCTCCTCCTCCTTGTTTGGGTTGGGTGCCGGAGTCACCTAGTGCAG", "binding signal": "11900 fluorescence intensity (a.u.)"}
{"sequence": "CCATCTCTATTCTCGCACCGTCCTATGTATTATCACCCTACGGAGTCACCTAGTGCAG", "binding signal": "9620 fluorescence intensity (a.u.)"}
{"sequence": "ATGGCAACGACCCAGTTCTGTCCGAGTAGGACTCCTTCCACGGAGTCACCTAGTGCAG", "binding signal": "8310 fluorescence intensity (a.u.)"}
{"sequence": "ATTTAGTAATATTGCCAAGTTTTGATAGGATTTCTTATGTCGGAGTCACCTAGTGCAG", "binding signal": "8180 fluorescence intensity (a.u.)"}
{"sequence": "TTTCTTGACTTTTTCATTTGAAGTCATTTAGTGTCTCAATCGGAGTCACCTAGTGCAG", "binding signal": "8810 fluorescence intensity (a.u.)"}
{"sequence": "GGAGGGGAGAGGGGAAAACGCGTGGGGCCATGATTGGCAACGGAGTCACCTAGTGCAG", "binding signal": "9980 fluorescence intensity (a.u.)"}
{"sequence": "ATGTCGACCTGATGATTATTTTGTTGATCATGATTTTCTTCGGAGTCACCTAGTGCAG", "binding signal": "9010 fluorescence intensity (a.u.)"}
